Data on 5 sequences can be found in patent publication US20130203116.

Chains of the proteins cited; added tags and fusions are not shown. Where a name states a change or a piece, a line headed by the entry shows the natural chain unless it says otherwise. Chains listed by the source or under a name are the forms on record and can include a tag or linker. Residues count along the entry.
UniProt Q06609, 2-339: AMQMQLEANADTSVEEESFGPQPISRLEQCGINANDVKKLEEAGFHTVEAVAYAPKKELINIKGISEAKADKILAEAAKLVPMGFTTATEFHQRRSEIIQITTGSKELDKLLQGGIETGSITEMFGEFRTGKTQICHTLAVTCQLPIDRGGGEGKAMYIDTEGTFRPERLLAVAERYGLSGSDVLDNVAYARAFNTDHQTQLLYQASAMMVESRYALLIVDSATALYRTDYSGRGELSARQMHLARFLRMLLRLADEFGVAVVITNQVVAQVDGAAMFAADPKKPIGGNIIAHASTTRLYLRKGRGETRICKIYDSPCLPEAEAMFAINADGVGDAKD
UniProt P51587, whole entry: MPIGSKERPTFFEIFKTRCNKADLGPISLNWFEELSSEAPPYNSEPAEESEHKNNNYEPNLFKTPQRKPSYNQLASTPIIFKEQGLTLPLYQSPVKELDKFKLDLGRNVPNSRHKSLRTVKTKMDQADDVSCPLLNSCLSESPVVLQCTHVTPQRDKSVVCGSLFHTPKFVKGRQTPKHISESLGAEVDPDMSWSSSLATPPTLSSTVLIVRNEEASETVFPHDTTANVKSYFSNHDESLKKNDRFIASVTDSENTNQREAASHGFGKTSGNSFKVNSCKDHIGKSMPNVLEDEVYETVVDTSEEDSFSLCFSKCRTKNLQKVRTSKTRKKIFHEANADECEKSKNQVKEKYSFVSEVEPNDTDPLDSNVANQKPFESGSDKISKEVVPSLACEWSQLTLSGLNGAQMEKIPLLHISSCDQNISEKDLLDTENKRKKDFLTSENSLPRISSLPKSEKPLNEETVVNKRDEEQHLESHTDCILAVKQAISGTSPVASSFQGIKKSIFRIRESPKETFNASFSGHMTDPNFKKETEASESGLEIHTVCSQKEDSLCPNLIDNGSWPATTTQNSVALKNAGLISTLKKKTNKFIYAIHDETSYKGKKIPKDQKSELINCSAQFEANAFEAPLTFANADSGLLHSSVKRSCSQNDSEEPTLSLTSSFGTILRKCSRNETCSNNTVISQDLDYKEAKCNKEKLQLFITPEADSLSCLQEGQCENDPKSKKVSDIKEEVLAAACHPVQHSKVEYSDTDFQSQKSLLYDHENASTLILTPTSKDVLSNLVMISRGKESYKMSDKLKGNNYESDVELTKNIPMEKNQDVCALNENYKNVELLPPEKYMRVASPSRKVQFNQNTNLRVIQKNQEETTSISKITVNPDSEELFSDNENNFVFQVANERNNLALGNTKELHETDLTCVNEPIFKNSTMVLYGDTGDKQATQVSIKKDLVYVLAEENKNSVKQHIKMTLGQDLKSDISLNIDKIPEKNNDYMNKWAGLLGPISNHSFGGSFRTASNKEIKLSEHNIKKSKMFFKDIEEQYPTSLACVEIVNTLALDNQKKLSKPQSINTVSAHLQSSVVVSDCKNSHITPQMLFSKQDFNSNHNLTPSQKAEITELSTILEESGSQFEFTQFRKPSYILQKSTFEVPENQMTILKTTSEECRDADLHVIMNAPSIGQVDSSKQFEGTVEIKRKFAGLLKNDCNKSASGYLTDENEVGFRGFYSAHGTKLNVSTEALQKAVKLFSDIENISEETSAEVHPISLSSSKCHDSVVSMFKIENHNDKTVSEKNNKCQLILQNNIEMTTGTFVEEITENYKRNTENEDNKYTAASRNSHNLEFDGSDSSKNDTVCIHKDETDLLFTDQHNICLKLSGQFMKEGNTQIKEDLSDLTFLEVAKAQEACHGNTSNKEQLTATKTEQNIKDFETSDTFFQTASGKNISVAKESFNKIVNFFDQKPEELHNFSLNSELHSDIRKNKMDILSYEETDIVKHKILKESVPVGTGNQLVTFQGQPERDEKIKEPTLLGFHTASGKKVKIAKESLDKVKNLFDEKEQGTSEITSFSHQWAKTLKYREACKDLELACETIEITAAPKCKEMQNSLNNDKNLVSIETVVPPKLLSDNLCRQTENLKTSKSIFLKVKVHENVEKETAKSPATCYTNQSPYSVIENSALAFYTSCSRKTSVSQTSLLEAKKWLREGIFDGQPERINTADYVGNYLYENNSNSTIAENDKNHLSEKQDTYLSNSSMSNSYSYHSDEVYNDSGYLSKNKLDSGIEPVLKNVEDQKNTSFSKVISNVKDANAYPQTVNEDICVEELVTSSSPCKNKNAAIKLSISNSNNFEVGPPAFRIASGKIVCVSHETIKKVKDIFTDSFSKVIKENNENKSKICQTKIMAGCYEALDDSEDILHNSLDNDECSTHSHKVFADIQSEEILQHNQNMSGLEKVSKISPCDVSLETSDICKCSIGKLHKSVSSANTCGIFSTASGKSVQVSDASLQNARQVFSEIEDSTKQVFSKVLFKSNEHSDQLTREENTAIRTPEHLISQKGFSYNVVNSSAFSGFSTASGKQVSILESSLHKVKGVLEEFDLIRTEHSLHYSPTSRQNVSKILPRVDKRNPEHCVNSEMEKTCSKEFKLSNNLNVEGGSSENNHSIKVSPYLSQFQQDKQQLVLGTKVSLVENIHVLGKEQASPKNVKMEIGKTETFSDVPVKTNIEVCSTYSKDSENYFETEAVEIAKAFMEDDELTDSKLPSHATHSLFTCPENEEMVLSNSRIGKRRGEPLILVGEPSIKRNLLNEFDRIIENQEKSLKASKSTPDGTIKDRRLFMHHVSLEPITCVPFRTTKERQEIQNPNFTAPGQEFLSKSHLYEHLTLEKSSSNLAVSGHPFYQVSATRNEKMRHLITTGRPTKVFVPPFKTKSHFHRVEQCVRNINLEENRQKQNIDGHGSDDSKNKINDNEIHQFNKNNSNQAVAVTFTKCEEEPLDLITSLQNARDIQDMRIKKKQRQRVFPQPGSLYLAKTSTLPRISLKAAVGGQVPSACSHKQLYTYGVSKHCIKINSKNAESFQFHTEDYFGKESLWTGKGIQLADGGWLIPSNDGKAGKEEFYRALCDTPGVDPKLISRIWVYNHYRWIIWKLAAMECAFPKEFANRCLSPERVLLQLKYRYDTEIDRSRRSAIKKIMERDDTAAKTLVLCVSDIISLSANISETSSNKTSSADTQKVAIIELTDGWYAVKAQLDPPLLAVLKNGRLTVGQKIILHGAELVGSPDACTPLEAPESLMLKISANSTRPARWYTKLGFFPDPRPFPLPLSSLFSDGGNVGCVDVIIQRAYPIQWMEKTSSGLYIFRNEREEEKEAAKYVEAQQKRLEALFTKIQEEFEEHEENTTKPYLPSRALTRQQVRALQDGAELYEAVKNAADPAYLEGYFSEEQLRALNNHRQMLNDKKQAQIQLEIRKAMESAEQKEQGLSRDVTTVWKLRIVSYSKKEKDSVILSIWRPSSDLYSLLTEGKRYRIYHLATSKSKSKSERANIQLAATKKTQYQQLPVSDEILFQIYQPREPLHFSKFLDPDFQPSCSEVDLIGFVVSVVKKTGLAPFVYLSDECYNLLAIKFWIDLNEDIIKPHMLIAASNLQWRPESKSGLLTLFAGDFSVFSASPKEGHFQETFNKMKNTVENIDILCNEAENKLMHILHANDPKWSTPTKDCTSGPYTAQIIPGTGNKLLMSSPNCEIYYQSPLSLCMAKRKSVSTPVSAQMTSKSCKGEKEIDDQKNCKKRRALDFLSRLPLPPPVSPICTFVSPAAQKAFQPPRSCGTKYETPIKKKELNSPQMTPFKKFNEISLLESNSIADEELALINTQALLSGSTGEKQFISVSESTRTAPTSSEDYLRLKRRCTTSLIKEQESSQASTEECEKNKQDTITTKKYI
UniProt P43351: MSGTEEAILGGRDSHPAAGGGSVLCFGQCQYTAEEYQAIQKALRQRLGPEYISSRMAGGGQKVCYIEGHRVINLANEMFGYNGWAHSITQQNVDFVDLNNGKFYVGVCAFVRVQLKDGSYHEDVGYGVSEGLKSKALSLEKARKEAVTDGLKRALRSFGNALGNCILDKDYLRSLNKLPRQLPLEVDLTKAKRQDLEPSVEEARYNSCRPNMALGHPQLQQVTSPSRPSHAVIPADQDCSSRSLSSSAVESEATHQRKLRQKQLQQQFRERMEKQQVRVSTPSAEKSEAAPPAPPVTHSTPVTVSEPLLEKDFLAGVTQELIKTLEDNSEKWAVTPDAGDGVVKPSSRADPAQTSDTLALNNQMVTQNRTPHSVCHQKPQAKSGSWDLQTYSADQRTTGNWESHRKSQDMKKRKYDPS
RPA (Homo sapiens), one chain, as listed by the source, chain 3 of 3: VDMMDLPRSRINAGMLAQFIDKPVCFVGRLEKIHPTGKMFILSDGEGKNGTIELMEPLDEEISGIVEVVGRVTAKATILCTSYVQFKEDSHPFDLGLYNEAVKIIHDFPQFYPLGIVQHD
RPA (Homo sapiens), one chain, as listed by the source, chain 1 of 3: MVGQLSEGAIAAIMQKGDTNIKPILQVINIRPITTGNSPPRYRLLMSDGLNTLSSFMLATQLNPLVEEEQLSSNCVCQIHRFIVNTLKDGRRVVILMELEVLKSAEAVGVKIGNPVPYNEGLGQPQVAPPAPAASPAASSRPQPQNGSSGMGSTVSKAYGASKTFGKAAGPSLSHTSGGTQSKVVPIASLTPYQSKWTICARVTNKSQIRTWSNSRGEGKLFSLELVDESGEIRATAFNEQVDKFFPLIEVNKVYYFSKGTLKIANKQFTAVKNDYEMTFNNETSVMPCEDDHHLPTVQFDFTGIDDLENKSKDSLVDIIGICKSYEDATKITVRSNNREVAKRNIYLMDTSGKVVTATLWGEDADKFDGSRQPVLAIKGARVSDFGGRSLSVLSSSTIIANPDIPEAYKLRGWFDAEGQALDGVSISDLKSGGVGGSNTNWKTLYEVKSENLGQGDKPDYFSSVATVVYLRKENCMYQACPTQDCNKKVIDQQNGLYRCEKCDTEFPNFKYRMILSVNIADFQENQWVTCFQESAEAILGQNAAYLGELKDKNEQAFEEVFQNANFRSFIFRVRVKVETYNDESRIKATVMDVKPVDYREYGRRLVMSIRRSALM
RPA (Homo sapiens), one chain, as listed by the source, chain 2 of 3: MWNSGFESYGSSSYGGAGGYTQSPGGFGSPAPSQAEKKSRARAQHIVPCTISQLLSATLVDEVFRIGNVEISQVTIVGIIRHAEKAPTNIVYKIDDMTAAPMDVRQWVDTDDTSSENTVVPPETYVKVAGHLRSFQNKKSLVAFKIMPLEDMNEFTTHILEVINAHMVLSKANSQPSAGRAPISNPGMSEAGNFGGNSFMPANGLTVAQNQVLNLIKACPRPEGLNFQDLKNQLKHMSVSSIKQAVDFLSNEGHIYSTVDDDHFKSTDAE

For part of these data: Weaker means in comparison with the reference protein, sequence or condition of that experiment.

One data set has as its target RAD51 (Homo sapiens) (UniProt Q06609). As to the kind of experiment: activity assay. To be noted: purified recombinant protein.
Another data set deals with RPA (Homo sapiens). As to the kind of experiment: inhibition of the protein. Particulars: purified recombinant protein.
Data set [1] deals with BRCA2 (2XMBP-BRCA2, full length) (Homo sapiens) (UniProt P51587). As to the kind of experiment: EMSA. To be noted: bound but much weaker than ssDNA or tailed DNA; 1 mM MgCl2, 2 mM CaCl2, 2 mM ATP, 37 C; purified recombinant protein; label: 5'-32P on RJ-Oligo1. For orientation: In EMSA bound probe runs differently from free probe, usually more slowly.
The next data set addresses RAD52 (Homo sapiens) (UniProt P43351). Briefly: activity assay. Particulars: ssDNA annealing clearly increased; also anneals RPA-ssDNA complexes; 100 nM RAD52, 1 mM MgCl2; purified recombinant protein; protein details: gift from Alex Mazin; label: 5'-32P on RJ-Oligo1.

Turning to “ATTTATTCTATTCCCTTTATTTTCTCTGTTTATTCATTTACTTATTTTGTATTAATTTCCTATATTTTTTACTTGTATTTCTTATTCATTTACTTATTTTGTATTATCCTTATTTATATCCTTTCTGCTTTATCAAGATAATTTTTCGACTCATCAGAAATATCCG / CGGATATTTCTGATGAGTCGAAAAATTATCTTGATAAAGCAG [5' tailed DNA (RJ-5'TAIL-167-mer/RJ-PHIX-42-1)]”, the “activity on this sequence” value with RAD51 (Homo sapiens) (DNA strand exchange on RPA-coated 5' tail, stimulated by BRCA2 like 3' tail, label: 5'-32P on 167-mer (EMSA)) is on record as “active”.

“CTGCTTTATCAAGATAATTTTTCGACTCATCAGAAATATCCGTTTCCTATATTTATTCCTATTATGTTTTATTCATTTACTTATTCTTTATGTTCATTTTTTATATCCTTTACTTTATTTTCTCTGTTTATTCATTTACTTATTTTGTATTATCCTTATCTTATTTA / CGGATATTTCTGATGAGTCGAAAAATTATCTTGATAAAGCAG [3' tailed DNA (RJ-167-mer/RJ-PHIX-42-1)]”: in the data set on RPA (Homo sapiens) (RPA precoating of tailed DNA severely impairs RAD51 strand exchange, label: 5'-32P on 167-mer (EMSA)), the “activity on this sequence” value is given as “active”.

As to “CTGCTTTATCAAGATAATTTTTCGACTCATCAGAAATATCCGTTTCCTATATTTATTCCTATTATGTTTTATTCATTTACTTATTCTTTATGTTCATTTTTTATATCCTTTACTTTATTTTCTCTGTTTATTCATTTACTTATTTTGTATTATCCTTATCTTATTTA [RJ-167-mer ssDNA]”, the “activity on this sequence” value in the data set with RAD51 (Homo sapiens) (DNA strand exchange on RPA-coated ssDNA, BRCA2 stimulation about 2-fold lower than with tailed DNA, label: 5'-32P (EMSA), single-stranded DNA) is recorded as “active”.

On to “TAATACAAAATAAGTAAATGAATAAACAGAGAAAATAAAG (double strand) [dsDNA (RJ-Oligo1/RJ-Oligo2)]”, for which the binding result in data set [1] is given as “binds more weakly”.

As for “TAATACAAAATAAGTAAATGAATAAACAGAGAAAATAAAG / CTGCTTTATCAAGATAATTTTTCGACTCATCAGAAATATCCGTTTCCTATATTTATTCCTATTATGTTTTATTCATTTACTTATTCTTTATGTTCATTTTTTATATCCTTTACTTTATTTTCTCTGTTTATTCATTTACTTATTTTGTATTATCCTTATCTTATTTA [RJ-Oligo1 + RJ-167-mer annealing pair]”, the “activity on this sequence” value in the data set with RAD52 (Homo sapiens) is listed as “active”; in the data set with RPA (Homo sapiens) (RPA (100 nM) completely blocks spontaneous annealing, label: 5'-32P on RJ-Oligo1) it was “active”.
